Experimental data from doi:10.1101/2023.08.12.553084.
Read-outs that look alike come from different tables or passages of the source. These are yes or no findings as the source states them, for the method shown. Binding seen in cells or lysates may run through a third protein. Some binding calls cover weakened binding; strength is not graded here.

Sequences of proteins named here, by UniProt entry; tags and fusion partners are left off. Residues count along the entry.
UniProt Q9BZS1, residues 1-417: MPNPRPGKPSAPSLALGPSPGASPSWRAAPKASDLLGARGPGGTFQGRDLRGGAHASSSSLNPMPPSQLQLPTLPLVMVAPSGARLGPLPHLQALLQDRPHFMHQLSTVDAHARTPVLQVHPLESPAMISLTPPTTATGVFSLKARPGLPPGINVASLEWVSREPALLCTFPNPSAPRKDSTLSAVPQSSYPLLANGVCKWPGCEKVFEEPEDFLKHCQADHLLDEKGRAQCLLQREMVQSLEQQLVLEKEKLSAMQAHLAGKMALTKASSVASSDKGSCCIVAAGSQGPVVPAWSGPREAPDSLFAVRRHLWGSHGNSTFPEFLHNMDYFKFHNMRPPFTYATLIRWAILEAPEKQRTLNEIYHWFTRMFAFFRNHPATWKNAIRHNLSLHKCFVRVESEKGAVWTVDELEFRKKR
UniProt Q13422: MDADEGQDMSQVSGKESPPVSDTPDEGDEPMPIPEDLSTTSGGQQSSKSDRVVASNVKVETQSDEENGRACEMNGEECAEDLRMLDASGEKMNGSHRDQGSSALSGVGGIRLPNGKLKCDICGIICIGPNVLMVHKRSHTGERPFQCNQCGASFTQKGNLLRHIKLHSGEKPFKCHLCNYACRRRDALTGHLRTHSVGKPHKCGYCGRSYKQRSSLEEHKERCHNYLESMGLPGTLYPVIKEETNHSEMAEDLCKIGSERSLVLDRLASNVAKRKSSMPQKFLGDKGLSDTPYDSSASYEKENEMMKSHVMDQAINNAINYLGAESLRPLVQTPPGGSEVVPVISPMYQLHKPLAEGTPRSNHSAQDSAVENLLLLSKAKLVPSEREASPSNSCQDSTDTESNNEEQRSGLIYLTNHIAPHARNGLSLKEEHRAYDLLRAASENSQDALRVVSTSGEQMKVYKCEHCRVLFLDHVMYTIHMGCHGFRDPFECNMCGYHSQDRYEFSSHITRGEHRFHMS
UniProt P81183: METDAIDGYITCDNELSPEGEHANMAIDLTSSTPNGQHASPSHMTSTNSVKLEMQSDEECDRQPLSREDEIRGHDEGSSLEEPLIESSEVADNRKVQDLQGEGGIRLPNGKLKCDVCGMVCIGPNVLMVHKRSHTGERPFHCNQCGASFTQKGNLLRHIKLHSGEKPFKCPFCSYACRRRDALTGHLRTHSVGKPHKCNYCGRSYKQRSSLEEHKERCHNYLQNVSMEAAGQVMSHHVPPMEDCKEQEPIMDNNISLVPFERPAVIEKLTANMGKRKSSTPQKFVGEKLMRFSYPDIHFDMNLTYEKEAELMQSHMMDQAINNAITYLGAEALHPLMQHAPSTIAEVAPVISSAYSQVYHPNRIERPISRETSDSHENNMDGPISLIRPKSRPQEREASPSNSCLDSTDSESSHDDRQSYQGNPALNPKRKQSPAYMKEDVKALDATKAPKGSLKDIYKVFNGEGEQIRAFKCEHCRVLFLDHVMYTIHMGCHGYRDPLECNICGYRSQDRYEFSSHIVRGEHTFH

Key:
Test in all cases: co-IP
[1] = molecular target: FOXP3 (endogenous, human Treg cells) (human (endogenous in Treg cells)) (UniProt Q9BZS1)
[2] = molecular target: T1, Foxp3 (endogenous, mouse Treg cells) (mouse (endogenous in Treg cells)) (UniProt Q99JB6)
T1 sequence: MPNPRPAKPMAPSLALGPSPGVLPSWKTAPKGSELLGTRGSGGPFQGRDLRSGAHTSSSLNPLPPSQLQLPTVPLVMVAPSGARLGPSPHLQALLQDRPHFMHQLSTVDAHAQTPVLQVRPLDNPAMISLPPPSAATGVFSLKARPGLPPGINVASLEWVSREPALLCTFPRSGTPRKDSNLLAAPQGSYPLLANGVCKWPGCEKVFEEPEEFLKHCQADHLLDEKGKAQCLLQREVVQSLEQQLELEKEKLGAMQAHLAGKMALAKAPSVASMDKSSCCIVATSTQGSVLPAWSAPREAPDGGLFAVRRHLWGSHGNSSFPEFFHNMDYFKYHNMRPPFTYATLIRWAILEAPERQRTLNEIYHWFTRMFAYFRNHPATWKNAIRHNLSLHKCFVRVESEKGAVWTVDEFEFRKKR

[3] = molecular target: T1, Foxp3 (endogenous, mouse Treg cells) (mouse (endogenous in Treg cells)); remark: listed apart in the source

binding [1]	binding [2]	binding [3]	Substance
binds			IKZF1 (endogenous, human Treg cells) (from UniProt Q13422 1-519)
	binds	binds	Ikzf2 (endogenous, mouse Treg cells) (from UniProt P81183 1-526)
